Results from patent US6743640B2, “Fluorescent polymer-QTL approach to biosensing” (priority 2000, dated 2004).

Key:
[1] = Quenching of mixture of Laponite-supported polymer 2 and dissolved polymer 1; details: polymer 2 on Laponite clay, polymer 1 in aqueous solution
[2] = Quenching of polystyrene bead-supported polymer 1; details: for quenching of polystyrene-supported polymer 1: polymer 1 coated on cationic Source 30 Q polystyrene beads
[3] = Quenching of polystyrene bead-supported polymer 2; details: polymer 2 coated on anionic Source 30 S polystyrene beads

| Molecule | quenching in mixture of supported polymer 2 and dissolved polymer 1 [1] | quenching of polystyrene-supported polymer 1 [2] | quenching of polystyrene-supported polymer 2 [3] | change in emission of unquenched polystyrene-supported polymer 1 ([2]; added to unquenched supported polymer 1) |
| --- | --- | --- | --- | --- |
| C[n+]1ccc(-c2cc[n+](C)cc2)cc1 [viologen 3, methyl viologen] | only quenched the fluorescence of polymer 1 | not | – | – |
| anthraquinone disulfonate [anthraquinone 5] | selective quenching of the fluorescence of polymer 2 | quenched | not | – |
| avidin: 66 KD protein avidin, four biotin binding sites | – | – | – | no detectable change in the polymer emission |
